Measurements reported in PMC5342444.
These are yes or no findings as the source states them, for the method shown. Binding seen in cells or lysates may run through a third protein. Some results given as binding are weak or reduced against the parent protein; the word gives no strength. Tags and fused reporters may be left off the sequences shown.

Chains of the proteins cited; added tags and fusions are not shown. Residues count along the entry.
UniProt P38646, residues 47-679: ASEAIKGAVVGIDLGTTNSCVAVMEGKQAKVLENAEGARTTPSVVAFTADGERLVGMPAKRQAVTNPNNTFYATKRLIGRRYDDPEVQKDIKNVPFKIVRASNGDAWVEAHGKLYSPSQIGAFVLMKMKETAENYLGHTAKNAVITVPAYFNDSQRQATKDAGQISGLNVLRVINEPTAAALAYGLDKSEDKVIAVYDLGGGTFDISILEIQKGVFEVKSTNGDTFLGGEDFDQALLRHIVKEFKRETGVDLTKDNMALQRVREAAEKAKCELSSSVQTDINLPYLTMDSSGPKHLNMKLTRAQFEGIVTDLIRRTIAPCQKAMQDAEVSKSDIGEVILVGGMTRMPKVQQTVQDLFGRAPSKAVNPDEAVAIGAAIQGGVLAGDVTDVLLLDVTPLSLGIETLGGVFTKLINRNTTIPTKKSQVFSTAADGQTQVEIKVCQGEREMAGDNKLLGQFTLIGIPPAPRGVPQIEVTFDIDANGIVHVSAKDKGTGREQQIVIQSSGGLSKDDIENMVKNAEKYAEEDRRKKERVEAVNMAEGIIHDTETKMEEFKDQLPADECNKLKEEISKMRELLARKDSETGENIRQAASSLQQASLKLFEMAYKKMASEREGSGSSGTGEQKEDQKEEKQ
UniProt P11142: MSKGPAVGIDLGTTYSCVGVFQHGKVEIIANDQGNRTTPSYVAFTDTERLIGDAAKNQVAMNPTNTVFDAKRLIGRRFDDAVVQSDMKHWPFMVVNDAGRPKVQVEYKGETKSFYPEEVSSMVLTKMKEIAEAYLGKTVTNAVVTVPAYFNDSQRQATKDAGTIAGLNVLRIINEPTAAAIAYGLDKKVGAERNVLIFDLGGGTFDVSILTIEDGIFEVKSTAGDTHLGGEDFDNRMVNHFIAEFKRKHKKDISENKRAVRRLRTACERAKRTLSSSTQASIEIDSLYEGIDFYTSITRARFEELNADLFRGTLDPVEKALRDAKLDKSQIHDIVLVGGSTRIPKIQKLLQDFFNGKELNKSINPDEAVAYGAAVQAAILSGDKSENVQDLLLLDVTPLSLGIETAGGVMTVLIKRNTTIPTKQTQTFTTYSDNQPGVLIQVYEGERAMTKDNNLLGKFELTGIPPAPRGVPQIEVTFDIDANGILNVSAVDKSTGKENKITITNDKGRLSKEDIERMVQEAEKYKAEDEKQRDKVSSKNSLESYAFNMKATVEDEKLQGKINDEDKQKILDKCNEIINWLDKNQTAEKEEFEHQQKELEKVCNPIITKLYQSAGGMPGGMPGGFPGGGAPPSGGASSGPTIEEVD

Biological target: T1, CD24 overexpressed from the pcDNA4-CD24-myc plasmid in HT29 cells (human) (UniProt P25063)
T1 sequence: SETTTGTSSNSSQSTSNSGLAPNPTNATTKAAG
Experiment: co-IP; Grp75 and Hspa8/Hsc71 co-immunoprecipitated with CD24 (Supplementary Figure S2); cells and antibodies not given

Question: For Grp75 (from UniProt P38646 47-679), which binding is on record?
Answer: The binding was “binds”.

Question: For Hspa8/Hsc71 (from UniProt P11142 1-646), which binding is on record?
Answer: Its binding is “binds”.
